# Data taken from PubChem BioAssay (NCATS).
# Amino acid sequences for entries named in this document (tags omitted). A change or cut given only in a name is not applied to a line headed by its entry.
# UniProt Q03181: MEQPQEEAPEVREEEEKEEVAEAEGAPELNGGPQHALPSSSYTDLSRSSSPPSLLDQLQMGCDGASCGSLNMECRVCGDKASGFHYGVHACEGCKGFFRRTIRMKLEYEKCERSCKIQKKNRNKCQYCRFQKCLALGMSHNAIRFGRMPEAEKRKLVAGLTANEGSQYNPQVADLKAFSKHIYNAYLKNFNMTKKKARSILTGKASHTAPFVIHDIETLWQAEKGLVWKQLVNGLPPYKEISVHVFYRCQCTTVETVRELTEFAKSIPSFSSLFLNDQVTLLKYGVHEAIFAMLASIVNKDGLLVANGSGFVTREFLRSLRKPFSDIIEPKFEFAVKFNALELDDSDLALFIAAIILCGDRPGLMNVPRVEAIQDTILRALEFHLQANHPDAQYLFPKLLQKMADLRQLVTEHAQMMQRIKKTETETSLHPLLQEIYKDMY
# UniProt P51449: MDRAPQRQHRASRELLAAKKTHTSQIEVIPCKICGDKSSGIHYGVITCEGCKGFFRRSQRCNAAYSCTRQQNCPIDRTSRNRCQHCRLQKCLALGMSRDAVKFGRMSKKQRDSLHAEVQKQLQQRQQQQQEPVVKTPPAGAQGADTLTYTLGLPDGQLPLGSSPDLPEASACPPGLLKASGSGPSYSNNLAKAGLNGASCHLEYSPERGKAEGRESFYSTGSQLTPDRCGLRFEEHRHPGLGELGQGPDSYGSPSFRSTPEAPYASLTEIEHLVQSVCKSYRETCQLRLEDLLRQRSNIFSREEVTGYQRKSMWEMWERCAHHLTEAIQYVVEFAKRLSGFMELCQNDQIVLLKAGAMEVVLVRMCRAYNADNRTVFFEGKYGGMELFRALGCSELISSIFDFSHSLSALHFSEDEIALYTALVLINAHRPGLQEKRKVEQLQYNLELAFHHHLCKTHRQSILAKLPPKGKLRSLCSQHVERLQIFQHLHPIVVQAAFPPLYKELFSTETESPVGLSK
# The inconclusive results got no clear call from the source; some entries with a clear call stand among them for comparison. A call without a number means that no potency is given here. For some assays here: Potencies of inconclusive entries are doubtful fits and often do not repeat. Active and inactive are the calls of the source. Unless noted, the call rests on the fitted dose curve; in most records, active means well fitted curve in the direction sought with a large enough effect; inconclusive means small, poorly fitted or top-dose-only effect, or another doubt; inactive means no such curve, though single readings can be large; an effect the other way counts as inactive or inconclusive.
# Key:
# [1] = Cellular Toxicity (caspase-3) Jurkat (AID 655); conditions: Jurkat caspase-3 activation, luminescence; caspase-3 activation: at 92.2 µM (top of the series), DMSO = 0%, tamoxifen = 100%;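 further: cells exposed to compound for 16 h at 37 °C before reading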
# Summary of the method: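 Luminescent caspase-3/7 readout (aminoluciferin substrate cleavage) in human T-cell leukemia Jurkat cells after 16 hr compound exposure. Concentration-response normalized to DMSO and 100 uM tamoxifen; AC50 by standard Hill equation.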
# [2] = Cell Viability - LYMP2-013 (AID 970); further: nearly all actives have a fitted effect of over 55% in size
# Summary of the method: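 qHTS; 2500 lymphoblastoid cells/well; 5 hr 37 C settle; cpd 24 hr 37 C; CellTiter-Glo, 30 min RT; luminescence. AC50 = Hill fit.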
# [3] = Cell Viability - LYMP2-015 (AID 971); conditions: LYMP2-015 lymphoblastoid cell viability; series mostly up to 92.2 µM; further: nearly all actives have a fitted effect of over 55% in size
# Summary of the method: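 Luminescent ATP read-out (CellTiter-Glo) served as the viability measure after lymphoblastoid cells were exposed to compounds for 24 hours at 37 C. Concentration-response data were fitted with the Hill equation to give AC50.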
# [4] = MultiTox-Fluor Cytotoxicity Assay - LYMP1-002 - Dead Cells (AID 960); conditions: LYMP1-002 lymphoblastoid cells, dead-cell protease fluorescence; series mostly up to 46.1 µM; further: nearly all actives have a fitted effect of over 60% in size; further: potency means the concentration at half of the fitted maximal effect
# Summary of the method: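 LYMP1-002 cells 2500/well; 5 hr 37 C pre-incubation; compound 16 hr 37 C; MultiTox-Fluor reagent 60 min RT; dead-cell fluor Ex/Em 485/520. Norm. to DMSO (0%) vs 15 uM tetraoctylammonium bromide (100%); Hill AC50.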
# [5] = Cell Viability - LYMP2-005 (AID 967); further: potency means the concentration at half of the fitted maximal effect
# Summary of the method: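 Steps: seed 2500 LYMP2-005 cells/well, incubate 5 h at 37 C, add compound, incubate 24 h at 37 C, add CellTiter-Glo, wait 30 min at RT, read luminescence. Concentration-response data fitted to Hill equation for AC50.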
# [6] = Cell Viability - LYMP2-021 (AID 974);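 further: compound exposure lasts 24 hours at 37 °C; nearly all actives have a fitted effect of over 55% in size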
# Summary of the method: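 Plate 2500 lymphoblastoid cells per well and incubate 5 hr at 37 C. Add compounds over a concentration range and incubate 24 hr at 37 C. Add CellTiter-Glo, wait 30 min at room temperature, read luminescence.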
# [7] = target: Peroxisome proliferator-activated receptor delta (Homo sapiens) (UniProt Q03181); assay: qHTS assay for small molecule antagonists of peroxisome proliferator-activated receptor delta signaling (AID 588535; active means well fitted inhibition curve with a large enough effect in the signal ratio, with a control signal flat, not every such curve was filed as active; inconclusive means small, poorly fitted or top-dose-only effect, or effect the other way, or a change in a side signal; inactive means no such curve, though single readings can be large or run the other way; the % refers to the signal ratio); conditions: HEK293T PPARd-UAS-bla, beta-lactamase FRET ratio, 18 h; series mostly up to 76.7 µM
# Summary of the method: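 HEK293T PPAR-delta-UAS-bla cells, 4000/well, 2% charcoal/dextran FBS; 5 h 37 C; cpd titration; 18 h 37 C; CCF4 2 h RT; FI 460/530 nm; Hill fit → IC50, efficacy.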
# [8] = MultiTox-Fluor Cytotoxicity Assay - LYMP1-003 - Dead Cells (AID 961);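 further: cells exposed to compound for 16 h at 37 °C; nearly all actives have a fitted effect of over 70% in size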
# Summary of the method: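 LYMP1-003 lymphoblastoid, 2500 cells/well, 5 hr settle then 16 hr cpd at 37 C; MultiTox-Fluor reagent 60 min RT; Ex/Em 485/520 dead-cell signal; norm. DMSO = 0%, 15 uM tetraoctylammonium bromide = 100%; Hill AC50.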
# [9] = Cell Viability - LYMP2-004 (AID 966); conditions: LYMP2-004 lymphoblastoid cell viability, qHTS; series mostly up to 92.2 µM; further: potency means the concentration at half of the fitted maximal effect; nearly all actives have a fitted effect of over 65% in size
# Summary of the method: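 Cells seeded 2500/well, rested 5 hr at 37 C, dosed across a concentration series, incubated 24 hr at 37 C, then CellTiter-Glo added for 30 min at room temperature and luminescence read. Hill fitting gave AC50.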
# [10] = target: Nuclear receptor ROR-gamma (Homo sapiens) (UniProt P51449); assay: qHTS assay for small molecule antagonists of the retinoid-related orphan receptor gamma (ROR-gamma) signaling pathway (AID 651802);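 further: CHO cells with doxycycline-induced ROR-gamma expression; luciferase reporter luminescence driven by ROR response element; nearly all actives have a fitted effect of over 60% in size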
# Summary of the method: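 CHO, TET-inducible ROR + RORE-LUC reporter, 1536-well qHTS. Compound pinned, doxycycline added, 16hr 37C/5% CO2. ONE-Glo, 30 min RT, luminescence; signal drop scored as antagonism.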
# [11] = Cell Viability - LYMP2-017 (AID 972); further: nearly all actives have a fitted effect of over 55% in size
# Summary of the method: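 2500 cells/well, 5 h 37 C; cpd 24 h 37 C in complete medium; CellTiter-Glo, 30 min RT; luminescence (ATP). AC50 via Hill fit, qHTS.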
# [12] = Cell Viability - LYMP2-002 (AID 977);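 further: compound exposure lasted 24 h at 37 °C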; further: potency means the concentration at half of the fitted maximal effect
# Summary of the method: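 Cytotoxicity is scored as concentration-dependent loss of cellular ATP in a human lymphoblastoid line after 24 hr compound treatment at 37 C. AC50 is obtained by modelling concentration-response data with the Hill equation.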
# [13] = Cell Viability - LYMP2-022 (AID 987); further: nearly all actives have a fitted effect of over 55% in size
# Summary of the method: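 qHTS: human lymphoblastoid cells 2500/well; 5 hr 37 C; cpd added; 24 hr 37 C; CellTiter-Glo, 30 min RT; luminescence. AC50 via Hill fit; tetraoctylammonium bromide positive ctrl.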
# [14] = Cell Viability - LYMP2-025 (AID 976)
# Summary of the method: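 Seed 2500 LYMP2-025 cells/well; 5 hr at 37 C; add compound; 24 hr at 37 C; add CellTiter-Glo; 30 min RT; read luminescence. AC50 from Hill-modelled concentration-response.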
structure (smiles),measurement,setting,value
Cc1ccc(N)cc1C,Potency,[1],inactive
same,Potency,[2],inactive
same,Potency,[3],inactive
CC(C)OS(C)(=O)=O,Potency,[4],"inconclusive: 0.01 µM [cytotoxic, full curve, poor fit]"
same,Potency,[5],"inconclusive: 79.4 µM [rising, single point]"
OCCCCO,Potency,[4],inactive
same,Potency,[6],inactive
same,Potency,[7],inactive
O=C(Cl)C(Cl)(Cl)Cl,Potency,[8],inactive
C1=CC2C3C=CC(C3)C2C1 (configuration not stated),Potency,[9],"inconclusive: 79.4 µM [rising, single point]"
COc1ccccc1N,Potency,[5],"inconclusive: 50.1 µM [cytotoxic, partial curve, poor fit]"
same,Potency,[10],inactive
CC(C)OC(=O)Cc1ccccc1,Potency,[11],inactive
same,Potency,[12],inactive
same,Potency,[13],inactive
OCC(Br)CBr (configuration not stated),Potency,[14],inactive
same,Potency,[12],"inconclusive: 15.8 µM [rising, partial curve, poor fit]"

# Rewritten with tabs: entries from further up
structure (smiles)	measurement	setting	value
OCCCCO	Potency	[6]	inactive
same	Potency	[7]	inactive
